Source: the supplement of paper PMC10849652
Some of the results follow.

The chains behind the UniProt entries cited, without tags or fusion partners. Where a name states a change or a piece, a line headed by the entry shows the natural chain unless it says otherwise.
UniProt Q9UJ70, whole entry, looked up: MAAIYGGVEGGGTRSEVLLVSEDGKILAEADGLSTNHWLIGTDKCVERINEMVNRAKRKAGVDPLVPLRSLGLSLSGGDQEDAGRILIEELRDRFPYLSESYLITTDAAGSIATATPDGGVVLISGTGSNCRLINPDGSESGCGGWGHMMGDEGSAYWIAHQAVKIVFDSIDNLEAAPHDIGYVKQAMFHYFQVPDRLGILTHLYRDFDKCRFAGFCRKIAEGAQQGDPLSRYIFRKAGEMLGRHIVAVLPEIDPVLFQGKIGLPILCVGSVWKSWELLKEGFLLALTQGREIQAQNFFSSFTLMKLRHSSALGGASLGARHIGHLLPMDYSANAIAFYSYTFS
UniProt Q99836, whole entry, looked up: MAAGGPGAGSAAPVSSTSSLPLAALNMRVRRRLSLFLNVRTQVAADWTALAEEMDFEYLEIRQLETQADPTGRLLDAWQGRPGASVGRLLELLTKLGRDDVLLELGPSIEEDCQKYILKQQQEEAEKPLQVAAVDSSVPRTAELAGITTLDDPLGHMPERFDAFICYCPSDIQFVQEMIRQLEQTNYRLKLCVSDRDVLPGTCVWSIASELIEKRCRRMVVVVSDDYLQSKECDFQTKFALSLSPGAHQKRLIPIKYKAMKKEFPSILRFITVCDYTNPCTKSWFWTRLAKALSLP
UniProt P17050: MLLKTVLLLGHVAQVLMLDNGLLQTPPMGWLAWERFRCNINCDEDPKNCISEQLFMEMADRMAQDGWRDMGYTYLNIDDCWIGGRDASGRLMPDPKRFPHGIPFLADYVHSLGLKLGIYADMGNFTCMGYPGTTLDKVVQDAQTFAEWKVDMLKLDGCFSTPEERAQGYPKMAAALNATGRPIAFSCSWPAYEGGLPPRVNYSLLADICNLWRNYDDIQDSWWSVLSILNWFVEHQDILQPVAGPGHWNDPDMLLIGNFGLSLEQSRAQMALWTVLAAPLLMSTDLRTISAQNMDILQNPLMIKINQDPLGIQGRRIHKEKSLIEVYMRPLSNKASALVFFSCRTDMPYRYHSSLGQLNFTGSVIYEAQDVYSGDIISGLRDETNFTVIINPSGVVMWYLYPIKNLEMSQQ
UniProt Q9UM54, whole entry, looked up: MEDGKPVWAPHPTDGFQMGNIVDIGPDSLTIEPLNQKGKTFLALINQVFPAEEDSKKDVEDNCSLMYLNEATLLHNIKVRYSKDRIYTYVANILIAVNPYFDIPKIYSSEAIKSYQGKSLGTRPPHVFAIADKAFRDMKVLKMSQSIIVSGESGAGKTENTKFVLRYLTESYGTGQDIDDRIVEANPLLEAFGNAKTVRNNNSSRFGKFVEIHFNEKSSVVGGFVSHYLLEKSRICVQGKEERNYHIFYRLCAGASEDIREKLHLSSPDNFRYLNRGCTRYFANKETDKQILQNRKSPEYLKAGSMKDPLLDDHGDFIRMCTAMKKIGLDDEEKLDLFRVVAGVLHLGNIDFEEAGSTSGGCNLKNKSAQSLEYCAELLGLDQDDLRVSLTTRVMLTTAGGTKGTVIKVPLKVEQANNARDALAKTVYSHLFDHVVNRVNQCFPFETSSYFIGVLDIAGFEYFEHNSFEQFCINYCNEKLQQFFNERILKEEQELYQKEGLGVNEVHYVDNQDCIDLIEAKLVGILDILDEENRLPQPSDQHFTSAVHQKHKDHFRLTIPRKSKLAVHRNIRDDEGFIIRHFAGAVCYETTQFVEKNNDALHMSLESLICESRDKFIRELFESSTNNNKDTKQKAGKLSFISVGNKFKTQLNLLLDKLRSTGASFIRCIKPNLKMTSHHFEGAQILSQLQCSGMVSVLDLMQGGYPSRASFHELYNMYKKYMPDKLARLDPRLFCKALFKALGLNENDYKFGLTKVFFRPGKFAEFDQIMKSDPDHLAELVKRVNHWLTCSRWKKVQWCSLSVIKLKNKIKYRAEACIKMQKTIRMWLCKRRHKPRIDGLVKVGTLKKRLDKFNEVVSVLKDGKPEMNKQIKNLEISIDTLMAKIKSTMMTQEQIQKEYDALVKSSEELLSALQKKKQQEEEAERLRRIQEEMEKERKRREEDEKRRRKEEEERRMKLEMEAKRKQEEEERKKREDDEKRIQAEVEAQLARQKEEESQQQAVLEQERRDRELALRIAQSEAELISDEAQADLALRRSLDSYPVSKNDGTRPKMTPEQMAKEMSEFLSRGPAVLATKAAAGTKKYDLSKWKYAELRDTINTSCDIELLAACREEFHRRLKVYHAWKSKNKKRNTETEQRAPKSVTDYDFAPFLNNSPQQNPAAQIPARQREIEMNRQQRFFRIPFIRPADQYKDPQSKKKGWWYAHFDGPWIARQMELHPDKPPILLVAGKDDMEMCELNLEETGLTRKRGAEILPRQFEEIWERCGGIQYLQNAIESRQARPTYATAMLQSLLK
UniProt Q96H55, whole entry, looked up: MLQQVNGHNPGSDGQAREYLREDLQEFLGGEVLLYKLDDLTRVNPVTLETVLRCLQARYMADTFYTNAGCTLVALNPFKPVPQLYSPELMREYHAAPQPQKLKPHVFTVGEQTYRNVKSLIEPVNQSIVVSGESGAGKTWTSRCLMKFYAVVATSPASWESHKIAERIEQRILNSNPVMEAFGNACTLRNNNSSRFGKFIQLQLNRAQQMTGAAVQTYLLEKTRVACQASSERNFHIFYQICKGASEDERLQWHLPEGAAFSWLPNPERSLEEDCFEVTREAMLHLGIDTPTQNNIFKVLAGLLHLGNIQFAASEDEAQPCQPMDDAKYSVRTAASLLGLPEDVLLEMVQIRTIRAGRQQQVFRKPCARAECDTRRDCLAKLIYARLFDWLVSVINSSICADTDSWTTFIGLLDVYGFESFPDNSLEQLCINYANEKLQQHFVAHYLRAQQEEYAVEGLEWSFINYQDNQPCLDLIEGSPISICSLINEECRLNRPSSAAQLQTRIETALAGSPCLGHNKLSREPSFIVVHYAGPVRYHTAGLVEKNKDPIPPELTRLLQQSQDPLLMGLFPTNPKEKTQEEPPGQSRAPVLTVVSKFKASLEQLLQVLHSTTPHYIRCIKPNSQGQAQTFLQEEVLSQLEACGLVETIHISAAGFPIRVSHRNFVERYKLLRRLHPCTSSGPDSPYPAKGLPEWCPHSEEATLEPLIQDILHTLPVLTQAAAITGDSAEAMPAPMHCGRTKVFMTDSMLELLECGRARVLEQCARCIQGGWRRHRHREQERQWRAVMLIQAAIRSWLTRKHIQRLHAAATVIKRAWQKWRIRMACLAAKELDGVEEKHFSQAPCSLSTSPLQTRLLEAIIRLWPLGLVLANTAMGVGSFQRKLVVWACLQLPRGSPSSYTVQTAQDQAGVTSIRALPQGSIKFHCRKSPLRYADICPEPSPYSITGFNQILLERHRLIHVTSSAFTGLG
UniProt P12829: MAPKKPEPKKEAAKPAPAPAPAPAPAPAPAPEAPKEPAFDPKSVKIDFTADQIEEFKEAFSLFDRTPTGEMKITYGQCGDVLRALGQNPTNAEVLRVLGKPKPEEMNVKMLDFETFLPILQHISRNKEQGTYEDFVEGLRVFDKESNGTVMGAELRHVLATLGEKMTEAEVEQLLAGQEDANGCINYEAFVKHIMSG
UniProt Q8TBE9: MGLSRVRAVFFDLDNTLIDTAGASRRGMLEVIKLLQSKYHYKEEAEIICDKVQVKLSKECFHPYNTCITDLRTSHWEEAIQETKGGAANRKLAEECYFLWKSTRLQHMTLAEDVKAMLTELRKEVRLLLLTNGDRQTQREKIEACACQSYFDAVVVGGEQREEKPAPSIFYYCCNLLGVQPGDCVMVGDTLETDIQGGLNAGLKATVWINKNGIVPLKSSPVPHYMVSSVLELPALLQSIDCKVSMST
UniProt P54920: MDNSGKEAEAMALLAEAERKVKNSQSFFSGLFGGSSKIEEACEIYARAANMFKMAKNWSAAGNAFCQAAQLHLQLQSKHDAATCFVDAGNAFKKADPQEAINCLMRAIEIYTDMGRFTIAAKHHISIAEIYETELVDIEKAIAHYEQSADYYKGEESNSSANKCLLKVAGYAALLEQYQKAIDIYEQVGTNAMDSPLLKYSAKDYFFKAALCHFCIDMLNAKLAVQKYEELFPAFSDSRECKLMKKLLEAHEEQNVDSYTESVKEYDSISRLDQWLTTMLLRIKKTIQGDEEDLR
UniProt P14649: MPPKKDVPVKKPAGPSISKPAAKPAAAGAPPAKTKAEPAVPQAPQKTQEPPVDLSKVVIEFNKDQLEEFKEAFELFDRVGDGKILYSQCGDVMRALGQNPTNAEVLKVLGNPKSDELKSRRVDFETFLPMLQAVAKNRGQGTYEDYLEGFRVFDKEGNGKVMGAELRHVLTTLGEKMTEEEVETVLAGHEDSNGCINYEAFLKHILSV
UniProt Q9UBB6: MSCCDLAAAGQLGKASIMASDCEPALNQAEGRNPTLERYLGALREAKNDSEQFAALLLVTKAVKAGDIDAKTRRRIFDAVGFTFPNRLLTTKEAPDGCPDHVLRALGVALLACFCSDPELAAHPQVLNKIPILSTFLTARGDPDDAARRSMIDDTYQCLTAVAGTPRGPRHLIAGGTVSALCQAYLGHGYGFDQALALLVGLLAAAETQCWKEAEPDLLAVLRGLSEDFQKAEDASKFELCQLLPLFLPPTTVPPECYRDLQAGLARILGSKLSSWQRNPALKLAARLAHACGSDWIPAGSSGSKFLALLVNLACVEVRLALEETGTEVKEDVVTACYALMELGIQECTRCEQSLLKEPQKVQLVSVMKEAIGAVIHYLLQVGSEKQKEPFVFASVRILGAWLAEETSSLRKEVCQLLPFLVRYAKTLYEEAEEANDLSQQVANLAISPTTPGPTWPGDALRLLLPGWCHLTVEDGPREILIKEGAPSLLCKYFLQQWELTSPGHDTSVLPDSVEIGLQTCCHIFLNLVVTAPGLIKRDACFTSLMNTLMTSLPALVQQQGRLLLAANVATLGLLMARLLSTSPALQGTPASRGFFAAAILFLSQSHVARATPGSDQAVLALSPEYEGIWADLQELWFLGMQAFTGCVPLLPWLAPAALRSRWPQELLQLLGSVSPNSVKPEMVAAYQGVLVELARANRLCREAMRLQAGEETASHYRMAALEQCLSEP
UniProt Q86XI2: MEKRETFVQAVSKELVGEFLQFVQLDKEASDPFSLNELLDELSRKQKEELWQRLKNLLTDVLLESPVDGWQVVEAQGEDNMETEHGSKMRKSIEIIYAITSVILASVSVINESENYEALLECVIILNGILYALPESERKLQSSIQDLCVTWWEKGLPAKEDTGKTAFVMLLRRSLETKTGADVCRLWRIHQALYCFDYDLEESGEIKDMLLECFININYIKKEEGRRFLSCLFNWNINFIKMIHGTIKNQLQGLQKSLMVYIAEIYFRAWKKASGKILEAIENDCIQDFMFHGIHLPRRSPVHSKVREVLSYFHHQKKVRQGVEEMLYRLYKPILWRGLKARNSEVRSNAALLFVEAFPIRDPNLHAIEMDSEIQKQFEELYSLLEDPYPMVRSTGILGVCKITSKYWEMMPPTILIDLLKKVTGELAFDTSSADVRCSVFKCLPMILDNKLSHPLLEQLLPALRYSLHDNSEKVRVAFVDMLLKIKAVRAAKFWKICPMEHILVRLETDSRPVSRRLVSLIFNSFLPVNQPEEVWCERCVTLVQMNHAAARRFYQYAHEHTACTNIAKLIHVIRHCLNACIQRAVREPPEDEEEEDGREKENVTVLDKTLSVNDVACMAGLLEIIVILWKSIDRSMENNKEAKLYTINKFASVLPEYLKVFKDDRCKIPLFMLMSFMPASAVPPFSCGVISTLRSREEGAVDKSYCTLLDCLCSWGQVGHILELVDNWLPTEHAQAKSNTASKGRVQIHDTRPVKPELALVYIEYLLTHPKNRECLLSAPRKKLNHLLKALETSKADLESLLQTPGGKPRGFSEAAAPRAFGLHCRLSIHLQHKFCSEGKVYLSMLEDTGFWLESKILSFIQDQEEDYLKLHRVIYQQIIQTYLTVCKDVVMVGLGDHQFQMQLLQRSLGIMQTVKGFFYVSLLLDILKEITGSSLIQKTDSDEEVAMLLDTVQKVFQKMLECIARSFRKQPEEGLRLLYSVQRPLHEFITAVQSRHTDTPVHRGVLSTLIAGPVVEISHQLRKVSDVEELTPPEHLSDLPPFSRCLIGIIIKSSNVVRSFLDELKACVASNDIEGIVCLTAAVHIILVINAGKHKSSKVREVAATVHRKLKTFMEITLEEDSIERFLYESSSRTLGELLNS

Assays:
Experiment in all cases: log2 fold change, soluble protein after heating vs DMSO (PISA); higher = thermal stabilisation; K562 lysate, 10 uM; active = over 0.2 and 3.5 SD of the protein, either way, in both replicates (recomputed)
ibrutinib = compound: C=CC(=O)N1CCC[C@@H](n2nc(-c3ccc(Oc4ccccc4)cc3)c3c(N)ncnc32)C1 [ibrutinib]
In short: (§1)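 Soluble protein was defined as the supernatant remaining after 21,000xg for 90 min, following pooling of heated aliquots and adjustment to 0.5% NP-40 at 4°C. Before that, crude K562 extract at 1 mg/mL protein in PBS pH 7.4 with 1 mM MgCl2 was treated with 10 μM compound for 30 min and heated for 3 min across 48°C-58°C. Quantification used TMTpro 16plex LC-MS/MS with channel sums equalised, and values are log-two fold changes in thermal stability relative to solvent controls from duplicates.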

[1] = compound: CC(=O)c1cnc2ccc(-c3cc(Cl)c(O)c(Cl)c3)nc2c1N[C@H]1CC[C@H](CN(C)C)CC1
In short: as §1

ralimetinib = compound: CC(C)(C)Cn1c(N)nc2ccc(-c3[nH]c(C(C)(C)C)nc3-c3ccc(F)cc3)nc21 [ralimetinib]
In short: as §1

[2] = compound: CC(C)(O)CC(=O)NCCn1ccc2ncnc(Nc3ccc(Oc4cccc(C(F)(F)F)c4)c(Cl)c3)c21
In short: as §1

[3] = compound: CC(C)C1=C2N=C(C=C(N2N=C1)NCC3=CC=CC=C3)NCCCCCCN
In short: as §1

[4] = compound: CC1=C(C(CC(=O)N1)C2=CC=C(C=C2)C(F)(F)F)C(=O)NC3=C(C=C4C(=C3)C=NN4)F
In short: as §1

[5] = compound: CC1=C(C2=C(C=C1)C(=O)C3=CC=CC=C3N2CCCN)C
In short: as §1

[6] = compound: CC1=C(C=C(C=C1)NC(=O)C2=CC(=CC=C2)C(C)(C)C#N)NC3=CC4=C(C=C3)N=CN(C4=O)C
In short: as §1

[7] = compound: CC1=C(C=C(C=C1)NC(=O)C2=CC(=CC=C2)N(C)C)NC(=O)C3=CC=C(C=C3)O
In short: as §1

[8] = compound: CC1=CC=C(C=C1)SC2=C3C=C(SC3=CN=C2)C(=O)N
In short: as §1

vemurafenib = compound: CCCS(=O)(=O)Nc1ccc(F)c(C(=O)c2c[nH]c3ncc(-c4ccc(Cl)cc4)cc23)c1F [vemurafenib]
In short: as §1

[9] = compound: CCCS(=O)(=O)Nc1ccc(F)c(C(=O)c2c[nH]c3ncc(Cl)cc23)c1F
In short: as §1

barasertib = compound: CCN(CCCOc1ccc2c(Nc3cc(CC(=O)Nc4cccc(F)c4)[nH]n3)ncnc2c1)CCOP(=O)(O)O [barasertib]
In short: as §1

[10] = compound: CC[C@@H]1C(=O)N(C)c2cnc(Nc3ccc(C(=O)NC4CCN(C)CC4)cc3OC)nc2N1C1CCCC1
In short: as §1

volasertib = compound: CC[C@@H]1C(=O)N(C)c2cnc(Nc3ccc(C(=O)N[C@H]4CC[C@H](N5CCN(CC6CC6)CC5)CC4)cc3OC)nc2N1C(C)C [volasertib]
In short: as §1

[11] = compound: CCn1c(C(=O)N(C2CC2)C2CC2)cc2c3c(ncn3C)c(Nc3cc(C)n(C)n3)nc21
In short: as §1

[12] = compound: CCn1cc(-c2ccnc3[nH]c(-c4cccc(CN(C)C)c4)cc23)c(-c2ccc(NC(=O)N(C)C)cc2)n1
In short: as §1

[13] = compound: CN1CCC(CNc2ccc3ncc(-c4cccc(OC(F)(F)F)c4)n3n2)CC1
In short: as §1

saracatinib = compound: CN1CCN(CCOc2cc(OC3CCOCC3)c3c(Nc4c(Cl)ccc5c4OCO5)ncnc3c2)CC1 [saracatinib]
In short: as §1

sotrastaurin = compound: CN1CCN(c2nc(C3=C(c4c[nH]c5ccccc45)C(=O)NC3=O)c3ccccc3n2)CC1 [sotrastaurin]
In short: as §1

Measured: log2 fold change

NCOA6 (UniProt Q14686)
inactive: ibrutinib -0.019 | [1] -0.008 | ralimetinib 0.021 | [2] -0.051 | [3] 0.007 | [4] 0.084 | [5] 0.011 | [6] 0.013 | [7] 0.056 | [8] -0.042 | vemurafenib -0.012 | [9] 0.02 | barasertib 0.037 | [10] 0.082 | volasertib 0.008 | [11] -0.009 | [12] -0.03 | [13] 0.02 | saracatinib -0.042 | sotrastaurin -0.025

NAGK isoform 2 (UniProt Q9UJ70)
inactive: ibrutinib 0.02 | [1] 0.076 | ralimetinib 0.012 | [2] 0.016 | [3] -0.036 | [4] 0.03 | [5] 0.023 | [6] -0.041 | [7] -0.025 | [8] -0.021 | vemurafenib 0.004 | [9] 0.004 | barasertib -0.059 | [10] 0.079 | volasertib 0.037 | [11] 0.023 | [12] -0.108 | [13] 0.067 | saracatinib 0.014 | sotrastaurin 0.016

MYD88 isoform 6 (UniProt Q99836)
inactive: ibrutinib 0.044 | [1] 0.003 | ralimetinib 0.022 | [2] 0.005 | [3] 0.024 | [4] 0.002 | [5] -0.028 | [6] -0.009 | [7] -0.024 | [8] -0.029 | vemurafenib -0.031 | [9] 0.01 | barasertib -0.002 | [10] -0.042 | volasertib -0.075 | [11] 0.022 | [12] -0.009 | [13] -0.013 | saracatinib 0.009 | sotrastaurin 0.05

NAGA (UniProt P17050)
inactive: ibrutinib -0.097 | [1] 0.028 | ralimetinib -0.015 | [2] -0.016 | [3] -0.036 | [4] -0.006 | [5] -0.015 | [6] -0.026 | [7] 0.009 | [8] -0.017 | vemurafenib -0.001 | [9] 0.031 | barasertib -0.043 | [10] 0.019 | volasertib 0.006 | [11] -0.022 | [12] 0.052 | [13] 0.037 | saracatinib -0.02 | sotrastaurin 0.018

MYO6 isoform 6 (UniProt Q9UM54)
inactive: ibrutinib 0.001 | [1] -0.007 | ralimetinib 0.038 | [2] -0.068 | [3] -0.002 | [4] 0.028 | [5] -0.154 | [6] -0.056 | [7] 0.003 | [8] -0.012 | vemurafenib 0.01 | [9] 0.004 | barasertib 0.011 | [10] 0.039 | volasertib -0.056 | [11] 0.082 | [12] -0.047 | [13] -0.003 | saracatinib -0.15 | sotrastaurin 0.066

MYO19 (UniProt Q96H55)
inactive: ibrutinib -0.027 | [1] 0.084 | ralimetinib -0.031 | [2] 0.006 | [3] -0.16 | [4] 0.038 | [5] -0.091 | [6] -0.067 | [7] 0.094 | [8] -0.086 | vemurafenib -0.088 | [9] 0.044 | barasertib -0.118 | [10] -0.101 | volasertib -0.134 | [11] 0.029 | [12] 0.008 | [13] -0.154 | saracatinib 0.154 | sotrastaurin -0.077

NCAPG (UniProt Q9BPX3)
inactive: ibrutinib 0.006 | [1] 0.015 | ralimetinib 0.027 | [2] -0.015 | [3] -0.026 | [4] -0.009 | [5] -0.02 | [6] 0.014 | [7] 0.018 | [8] 0.024 | vemurafenib -0.013 | [9] 0.021 | barasertib 0.018 | [10] -0.057 | volasertib -0.023 | [11] 0.015 | [12] -0.05 | [13] -0.024 | saracatinib 0.001 | sotrastaurin -0.011

MYL4 (UniProt P12829)
inactive: ibrutinib 0.114 | [1] -0.018 | ralimetinib -0.006 | [2] -0.014 | [3] -0.005 | [4] -0.04 | [5] -0.015 | [6] 0.049 | [7] 0.037 | [8] -0.034 | vemurafenib -0.001 | [9] 0.011 | barasertib 0.206 | [10] 0.018 | volasertib 0.049 | [11] -0.04 | [12] -0.081 | [13] -0.013 | saracatinib -0.011 | sotrastaurin -0.019

MVB12A (UniProt Q96EY5)
inactive: ibrutinib 0.049 | [1] 0.009 | ralimetinib -0.008 | [2] 0.001 | [3] -0.003 | [4] -0.015 | [5] 0.033 | [6] -0.015 | [7] 0.043 | [8] 0.02 | vemurafenib -0.017 | [9] 0.005 | barasertib -0.04 | [10] 0.094 | volasertib -0.001 | [11] 0.03 | [12] 0.009 | [13] -0.001 | saracatinib 0.015 | sotrastaurin 0.01

NANP (UniProt Q8TBE9)
inactive: ibrutinib 0.032 | [1] 0.169 | ralimetinib 0.046 | [2] 0.002 | [3] -0.063 | [4] -0.008 | [5] 0.005 | [6] -0.017 | [7] -0.018 | [8] 0.019 | vemurafenib -0.037 | [9] 0 | barasertib 0.021 | [10] -0.052 | volasertib -0.041 | [11] 0.067 | [12] -0.041 | [13] 0.149 | saracatinib 0.027 | sotrastaurin 0.007

NAA35 (UniProt Q5VZE5)
inactive: ibrutinib -0.005 | [1] -0.017 | ralimetinib 0.006 | [2] 0.042 | [3] -0.01 | [4] -0.008 | [5] -0.004 | [6] -0.006 | [7] 0.017 | [8] -0.02 | vemurafenib 0 | [9] 0.015 | barasertib -0.01 | [10] 0.05 | volasertib -0.026 | [11] 0.001 | [12] 0.179 | [13] -0.035 | saracatinib 0.026 | sotrastaurin 0.006

2 consecutive records out of the list so far:
NANP (UniProt Q8TBE9)
inactive: ibrutinib 0.032 | [1] 0.169 | ralimetinib 0.046 | [2] 0.002 | [3] -0.063 | [4] -0.008 | [5] 0.005 | [6] -0.017 | [7] -0.018 | [8] 0.019 | vemurafenib -0.037 | [9] 0 | barasertib 0.021 | [10] -0.052 | volasertib -0.041 | [11] 0.067 | [12] -0.041 | [13] 0.149 | saracatinib 0.027 | sotrastaurin 0.007

NAA35 (UniProt Q5VZE5)
inactive: ibrutinib -0.005 | [1] -0.017 | ralimetinib 0.006 | [2] 0.042 | [3] -0.01 | [4] -0.008 | [5] -0.004 | [6] -0.006 | [7] 0.017 | [8] -0.02 | vemurafenib 0 | [9] 0.015 | barasertib -0.01 | [10] 0.05 | volasertib -0.026 | [11] 0.001 | [12] 0.179 | [13] -0.035 | saracatinib 0.026 | sotrastaurin 0.006

Additional entries:

NAPA (UniProt P54920)
inactive: ibrutinib 0.016 | [1] -0.009 | ralimetinib -0.017 | [2] 0.001 | [3] -0.02 | [4] -0.016 | [5] -0.02 | [6] 0.048 | [7] -0.024 | [8] -0.011 | vemurafenib -0.003 | [9] 0.019 | barasertib -0.012 | [10] 0.038 | volasertib 0.004 | [11] -0.017 | [12] 0.121 | [13] 0.008 | saracatinib -0.018 | sotrastaurin -0.118

MYL6B (UniProt P14649)
inactive: ibrutinib 0.035 | [1] 0.041 | ralimetinib -0.004 | [2] 0.012 | [3] -0.025 | [4] -0.028 | [5] 0.011 | [6] 0.011 | [7] -0.03 | [8] 0.012 | vemurafenib 0.018 | [9] 0.004 | barasertib -0.002 | [10] -0.008 | volasertib 0.024 | [11] 0.02 | [12] 0.043 | [13] -0.025 | saracatinib 0.025 | sotrastaurin 0.008

NCDN isoform 3 (UniProt Q9UBB6)
inactive: ibrutinib -0.035 | [1] 0.008 | ralimetinib 0.021 | [2] -0.033 | [3] -0.03 | [4] -0.016 | [5] -0.017 | [6] -0.029 | [7] 0.021 | [8] -0.003 | vemurafenib -0.023 | [9] 0.022 | barasertib 0.007 | [10] -0.038 | volasertib -0.051 | [11] 0.01 | [12] 0.017 | [13] -0.067 | saracatinib 0.042 | sotrastaurin 0.025

MYO9B (UniProt Q13459)
inactive: ibrutinib 0.041 | [1] -0.004 | ralimetinib 0.061 | [2] -0.005 | [3] 0.004 | [4] 0.03 | [5] -0.002 | [6] 0.005 | [7] 0.021 | [8] 0.003 | vemurafenib 0.065 | [9] 0.03 | barasertib 0.049 | [10] 0.017 | volasertib -0.002 | [11] 0.048 | [12] -0.067 | [13] 0.081 | saracatinib -0.003 | sotrastaurin 0.048

NCAPG2 (UniProt Q86XI2)
inactive: ibrutinib 0.012 | [1] -0.029 | ralimetinib 0.018 | [2] 0.006 | [3] -0.009 | [4] 0.015 | [5] 0.05 | [6] -0.017 | [7] 0.001 | [8] -0.002 | vemurafenib 0.015 | [9] 0.044 | barasertib 0.016 | [10] -0.055 | volasertib -0.006 | [11] 0.025 | [12] -0.139 | [13] 0.074 | saracatinib 0.027 | sotrastaurin 0.027
